Test results: paper PMC9944328
Like-named read-outs stand apart in the source and are kept apart here. Results are given in words; binding and its absence hold for the method and conditions named. In cells and extracts the contact can be indirect. Some entries that bind do so weakly or less than the wild type.

By UniProt entry, the sequences of proteins in these tests, tags left out. Where a name states a change or a piece, a line headed by the entry shows the natural chain unless it says otherwise. Chains listed by the source or under a name are the forms on record and can include a tag or linker.
UniProt P30874: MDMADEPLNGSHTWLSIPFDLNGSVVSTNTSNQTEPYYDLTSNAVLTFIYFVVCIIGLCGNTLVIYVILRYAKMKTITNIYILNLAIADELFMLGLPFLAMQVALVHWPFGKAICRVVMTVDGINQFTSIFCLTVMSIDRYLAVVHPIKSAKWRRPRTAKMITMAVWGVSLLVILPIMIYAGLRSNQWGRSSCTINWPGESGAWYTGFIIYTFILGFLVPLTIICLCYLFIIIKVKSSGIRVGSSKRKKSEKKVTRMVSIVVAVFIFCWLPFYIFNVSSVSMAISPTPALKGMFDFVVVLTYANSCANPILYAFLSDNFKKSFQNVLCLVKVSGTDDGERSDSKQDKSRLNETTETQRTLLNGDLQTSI
SSTR2 Q102^2.63A (P30874, form named): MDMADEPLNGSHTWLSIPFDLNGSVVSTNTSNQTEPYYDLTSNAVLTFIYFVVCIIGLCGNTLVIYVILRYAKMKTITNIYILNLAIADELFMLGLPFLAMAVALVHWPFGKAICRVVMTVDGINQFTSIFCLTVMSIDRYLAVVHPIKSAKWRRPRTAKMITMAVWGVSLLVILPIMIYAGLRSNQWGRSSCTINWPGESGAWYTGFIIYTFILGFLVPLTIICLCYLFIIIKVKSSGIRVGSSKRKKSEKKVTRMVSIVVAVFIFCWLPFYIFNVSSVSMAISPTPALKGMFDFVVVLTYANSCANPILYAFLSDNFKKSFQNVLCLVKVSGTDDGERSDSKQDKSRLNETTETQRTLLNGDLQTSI
SSTR2 F265^6.44A (P30874, form named): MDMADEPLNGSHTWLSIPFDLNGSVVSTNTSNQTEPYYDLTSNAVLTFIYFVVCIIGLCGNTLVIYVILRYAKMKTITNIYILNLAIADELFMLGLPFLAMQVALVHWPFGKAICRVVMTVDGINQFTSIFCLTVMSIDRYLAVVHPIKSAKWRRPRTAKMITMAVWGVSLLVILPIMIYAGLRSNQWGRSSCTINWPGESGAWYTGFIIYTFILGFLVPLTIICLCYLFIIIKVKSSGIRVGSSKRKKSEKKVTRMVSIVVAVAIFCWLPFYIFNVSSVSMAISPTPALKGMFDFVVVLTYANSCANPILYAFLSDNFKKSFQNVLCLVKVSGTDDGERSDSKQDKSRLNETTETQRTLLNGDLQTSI
SSTR2 I130^3.40A (P30874, form named): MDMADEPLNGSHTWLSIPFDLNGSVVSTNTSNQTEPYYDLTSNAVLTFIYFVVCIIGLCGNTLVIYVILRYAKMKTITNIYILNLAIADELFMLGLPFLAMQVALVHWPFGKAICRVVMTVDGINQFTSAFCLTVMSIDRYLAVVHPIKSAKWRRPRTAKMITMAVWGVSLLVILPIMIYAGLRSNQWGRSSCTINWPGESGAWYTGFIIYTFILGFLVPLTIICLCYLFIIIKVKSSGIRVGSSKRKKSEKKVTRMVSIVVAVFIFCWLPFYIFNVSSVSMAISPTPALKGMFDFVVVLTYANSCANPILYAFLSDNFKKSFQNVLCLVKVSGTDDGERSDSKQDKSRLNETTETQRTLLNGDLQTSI
SSTR2 Q126^3.36A (P30874, form named): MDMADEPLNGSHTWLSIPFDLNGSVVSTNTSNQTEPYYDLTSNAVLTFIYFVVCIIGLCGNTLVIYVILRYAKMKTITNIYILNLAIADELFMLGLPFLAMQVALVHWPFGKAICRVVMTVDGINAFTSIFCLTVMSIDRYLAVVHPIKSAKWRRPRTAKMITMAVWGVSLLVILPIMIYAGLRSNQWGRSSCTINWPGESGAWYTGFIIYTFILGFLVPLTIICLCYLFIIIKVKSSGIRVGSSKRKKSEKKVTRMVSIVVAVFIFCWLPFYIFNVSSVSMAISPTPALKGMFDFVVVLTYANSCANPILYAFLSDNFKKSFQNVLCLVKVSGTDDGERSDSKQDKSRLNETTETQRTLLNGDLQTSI
SSTR2 P220^5.50A (P30874, form named): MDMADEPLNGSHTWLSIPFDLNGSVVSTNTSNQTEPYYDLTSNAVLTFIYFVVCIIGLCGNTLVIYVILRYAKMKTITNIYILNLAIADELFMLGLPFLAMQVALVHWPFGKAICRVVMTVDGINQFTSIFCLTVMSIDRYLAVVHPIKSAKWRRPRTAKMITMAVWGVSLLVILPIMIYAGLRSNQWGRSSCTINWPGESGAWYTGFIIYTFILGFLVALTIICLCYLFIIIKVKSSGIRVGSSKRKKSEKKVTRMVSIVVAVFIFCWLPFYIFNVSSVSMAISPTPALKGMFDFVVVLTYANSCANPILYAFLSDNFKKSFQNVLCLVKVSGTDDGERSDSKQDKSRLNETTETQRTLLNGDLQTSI
SSTR2 F208^5.38A (P30874, form named): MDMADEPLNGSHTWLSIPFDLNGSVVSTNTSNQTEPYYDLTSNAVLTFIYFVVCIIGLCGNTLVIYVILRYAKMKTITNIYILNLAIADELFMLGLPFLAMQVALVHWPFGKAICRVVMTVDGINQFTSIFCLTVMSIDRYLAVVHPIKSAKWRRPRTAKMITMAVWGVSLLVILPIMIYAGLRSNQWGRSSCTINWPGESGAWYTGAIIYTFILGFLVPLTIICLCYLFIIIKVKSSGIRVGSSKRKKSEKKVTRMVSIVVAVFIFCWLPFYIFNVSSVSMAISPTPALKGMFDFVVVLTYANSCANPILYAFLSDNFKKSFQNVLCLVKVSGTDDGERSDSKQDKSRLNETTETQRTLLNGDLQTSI
SSTR2 L99^2.60A (P30874, form named): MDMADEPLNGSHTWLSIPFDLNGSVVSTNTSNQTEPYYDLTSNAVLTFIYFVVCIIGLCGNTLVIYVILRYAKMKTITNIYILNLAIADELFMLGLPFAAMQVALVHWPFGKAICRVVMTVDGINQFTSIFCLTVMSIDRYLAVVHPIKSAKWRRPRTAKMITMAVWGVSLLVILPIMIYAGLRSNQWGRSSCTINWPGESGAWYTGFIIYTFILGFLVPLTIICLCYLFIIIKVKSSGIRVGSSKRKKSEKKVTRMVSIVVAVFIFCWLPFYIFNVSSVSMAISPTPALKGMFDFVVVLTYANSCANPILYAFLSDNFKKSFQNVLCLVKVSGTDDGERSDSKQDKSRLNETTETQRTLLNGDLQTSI
SSTR2 Y302^7.43A-SmBiT (P30874, form named): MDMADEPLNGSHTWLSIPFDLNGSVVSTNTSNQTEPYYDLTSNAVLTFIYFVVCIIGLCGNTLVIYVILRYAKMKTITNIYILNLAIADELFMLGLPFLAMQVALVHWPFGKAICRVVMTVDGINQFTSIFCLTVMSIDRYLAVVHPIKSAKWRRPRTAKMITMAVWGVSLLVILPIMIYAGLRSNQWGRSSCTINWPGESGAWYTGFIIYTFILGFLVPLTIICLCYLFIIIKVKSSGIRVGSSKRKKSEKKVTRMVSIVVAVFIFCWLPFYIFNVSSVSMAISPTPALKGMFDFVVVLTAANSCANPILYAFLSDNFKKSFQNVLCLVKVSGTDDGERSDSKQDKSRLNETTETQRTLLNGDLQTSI
SSTR2 I284^ECL3A-SmBiT (P30874, form named): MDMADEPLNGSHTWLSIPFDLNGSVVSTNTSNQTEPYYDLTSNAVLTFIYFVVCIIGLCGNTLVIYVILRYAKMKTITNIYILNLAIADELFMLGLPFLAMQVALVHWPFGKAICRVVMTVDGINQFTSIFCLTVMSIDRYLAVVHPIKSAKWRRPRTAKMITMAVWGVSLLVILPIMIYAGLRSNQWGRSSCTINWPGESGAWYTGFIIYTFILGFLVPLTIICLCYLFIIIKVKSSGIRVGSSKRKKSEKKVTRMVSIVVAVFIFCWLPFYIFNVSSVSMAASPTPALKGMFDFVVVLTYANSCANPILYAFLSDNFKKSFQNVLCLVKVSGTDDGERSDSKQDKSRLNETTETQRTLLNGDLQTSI
SSTR2 K291^7.32A-SmBiT (P30874, form named): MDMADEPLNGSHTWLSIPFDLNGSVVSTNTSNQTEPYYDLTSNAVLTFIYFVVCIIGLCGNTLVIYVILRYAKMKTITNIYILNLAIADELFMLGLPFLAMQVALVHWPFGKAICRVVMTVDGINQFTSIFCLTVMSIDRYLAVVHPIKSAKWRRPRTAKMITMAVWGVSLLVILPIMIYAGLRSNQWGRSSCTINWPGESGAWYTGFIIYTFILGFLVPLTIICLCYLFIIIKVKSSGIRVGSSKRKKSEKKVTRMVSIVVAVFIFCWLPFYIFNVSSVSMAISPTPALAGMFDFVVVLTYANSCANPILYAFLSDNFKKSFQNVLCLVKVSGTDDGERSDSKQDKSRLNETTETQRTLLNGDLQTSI
SSTR2 N276^6.55A-SmBiT (P30874, form named): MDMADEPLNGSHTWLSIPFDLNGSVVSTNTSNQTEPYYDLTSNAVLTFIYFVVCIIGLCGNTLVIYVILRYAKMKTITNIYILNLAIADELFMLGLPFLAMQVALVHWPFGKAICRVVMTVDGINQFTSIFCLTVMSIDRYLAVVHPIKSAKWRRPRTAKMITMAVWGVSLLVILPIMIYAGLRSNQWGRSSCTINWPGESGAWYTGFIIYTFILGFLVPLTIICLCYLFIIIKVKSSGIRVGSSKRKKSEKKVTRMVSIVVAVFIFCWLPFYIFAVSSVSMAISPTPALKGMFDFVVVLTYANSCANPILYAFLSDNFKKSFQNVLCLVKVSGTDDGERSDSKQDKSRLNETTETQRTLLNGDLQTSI
SSTR2 F294^7.35A-SmBiT (P30874, form named): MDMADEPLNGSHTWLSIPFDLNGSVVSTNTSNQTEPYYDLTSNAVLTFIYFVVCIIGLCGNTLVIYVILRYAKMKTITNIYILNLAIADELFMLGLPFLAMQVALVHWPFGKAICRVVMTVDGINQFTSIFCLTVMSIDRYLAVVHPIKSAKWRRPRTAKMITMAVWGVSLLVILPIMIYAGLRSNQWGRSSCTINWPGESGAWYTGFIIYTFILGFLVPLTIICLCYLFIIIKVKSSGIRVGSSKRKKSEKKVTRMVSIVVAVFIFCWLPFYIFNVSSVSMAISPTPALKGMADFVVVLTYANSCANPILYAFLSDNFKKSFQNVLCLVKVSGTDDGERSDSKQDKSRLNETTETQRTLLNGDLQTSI
UniProt P49407: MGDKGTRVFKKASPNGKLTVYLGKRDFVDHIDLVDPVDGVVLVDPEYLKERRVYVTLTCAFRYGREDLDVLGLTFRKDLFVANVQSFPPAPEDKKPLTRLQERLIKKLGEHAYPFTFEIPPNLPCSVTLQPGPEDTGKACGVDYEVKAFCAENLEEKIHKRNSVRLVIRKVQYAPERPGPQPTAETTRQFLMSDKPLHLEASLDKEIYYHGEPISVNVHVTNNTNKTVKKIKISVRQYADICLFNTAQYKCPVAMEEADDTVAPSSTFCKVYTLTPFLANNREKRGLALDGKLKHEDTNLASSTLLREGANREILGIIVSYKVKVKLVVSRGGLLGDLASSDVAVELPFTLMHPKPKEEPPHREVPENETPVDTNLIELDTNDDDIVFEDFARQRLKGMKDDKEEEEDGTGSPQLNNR

What was measured:
Experiment in all cases: split reporter
[1] = biological target: SSTR2 Q102^2.63A (human) (UniProt P30874)
[2] = biological target: SSTR2 F265^6.44A (human) (UniProt P30874)
[3] = biological target: SSTR2 I130^3.40A (human) (UniProt P30874)
[4] = biological target: SSTR2 Q126^3.36A (human) (UniProt P30874)
[5] = biological target: SSTR2 Q102^2.63A (human) (UniProt P30874); remark: listed apart in the source
[6] = biological target: SSTR2 P220^5.50A (human) (UniProt P30874)
[7] = biological target: SSTR2 F265^6.44A (human) (UniProt P30874); remark: listed apart in the source
[8] = biological target: SSTR2 F208^5.38A (human) (UniProt P30874)
[9] = biological target: SSTR2 I130^3.40A (human) (UniProt P30874); remark: listed apart in the source
[10] = biological target: SSTR2 L99^2.60A (human) (UniProt P30874)
[11] = biological target: SSTR2 Y302^7.43A-SmBiT (human) (UniProt P30874)
[12] = biological target: SSTR2-SmBiT, wild type (human full-length SSTR2) (human) (UniProt P30874)
[13] = biological target: SSTR2 Y302^7.43A-SmBiT (human) (UniProt P30874); remark: listed apart in the source
[14] = biological target: SSTR2 I284^ECL3A-SmBiT (human) (UniProt P30874)
[15] = biological target: SSTR2 K291^7.32A-SmBiT (human) (UniProt P30874)
[16] = biological target: SSTR2-SmBiT, wild type (human full-length SSTR2) (human) (UniProt P30874); remark: listed apart in the source
[17] = biological target: SSTR2 I284^ECL3A-SmBiT (human) (UniProt P30874); remark: listed apart in the source
[18] = biological target: SSTR2 N276^6.55A-SmBiT (human) (UniProt P30874)
[19] = biological target: SSTR2 K291^7.32A-SmBiT (human) (UniProt P30874); remark: listed apart in the source
[20] = biological target: SSTR2 F294^7.35A-SmBiT (human) (UniProt P30874)

Measured: binding

human full-length β-arrestin 1 with LgBiT at the N-terminus (from UniProt P49407 1-418)
binds: [1] | [2] | [3] | [4] | [5] | [6] | [7] | [8] | [9] | [10]

LgBiT-β-arrestin 1 (human full-length β-arrestin 1) (from UniProt P49407 1-418)
binds: [11] | [12] | [13] | [14] | [15] | [16] | [17] | [18] | [19] | [20]
